According to PubChem BioAssay AID292 (DTP/NCI, 2004):
The list does not hold the whole screen: it gathers some chemical classes. Other doses and runs of a compound may be missing. T/C: endpoint of the treated group in % of that of the vehicle group. For survival time, the PubChem record calls one and a half times the control and up active, and a quarter to a half above the control has no call in these data; cut-offs in other NCI protocols can differ. Schedules are NCI's codes, read here as Q, the interval in days (D) or hours (H), X, the number of doses.

Tested on: B6C3F1 mice, ip Sarcoma M5076, median survival T/C
Test: NCI In Vivo Anticancer Drug Screen. Data for tumor model Sarcoma M5076 (intraperitoneal) in B6C3F1 mice
Settings: T/C endpoint: median survival time, schedule: Q04DX004 (ip), vehicle: saline, higher T/C = longer survival
Procedure: The antitumor activity of compounds was measured in mice bearing transplantable tumors. Survival or tumor size were measured and the results are expressed as the measurement made in the treated group (T) divided by the measurement made in the vehicle treated control group (C). The tumor model used in this assay is Sarcoma M5076 (intraperitoneal) in B6C3F1 mice

CN(CCCl)CCCl
T/C (dose: 0.31 mg/kg/injection): 133 % of control
T/C (dose: 0.62 mg/kg/injection): 163 % of control
T/C (dose: 1.25 mg/kg/injection): 184 % of control
